Measurements published in article PMC6240266.
No constants are given. Whether binding was seen depends on the method and setting. Binding seen in cells or lysates may run through a third protein. Some binding calls cover weakened binding; strength is not graded here.

Sequences of proteins named here, by UniProt entry; tags and fusion partners are left off.
UniProt Q12888: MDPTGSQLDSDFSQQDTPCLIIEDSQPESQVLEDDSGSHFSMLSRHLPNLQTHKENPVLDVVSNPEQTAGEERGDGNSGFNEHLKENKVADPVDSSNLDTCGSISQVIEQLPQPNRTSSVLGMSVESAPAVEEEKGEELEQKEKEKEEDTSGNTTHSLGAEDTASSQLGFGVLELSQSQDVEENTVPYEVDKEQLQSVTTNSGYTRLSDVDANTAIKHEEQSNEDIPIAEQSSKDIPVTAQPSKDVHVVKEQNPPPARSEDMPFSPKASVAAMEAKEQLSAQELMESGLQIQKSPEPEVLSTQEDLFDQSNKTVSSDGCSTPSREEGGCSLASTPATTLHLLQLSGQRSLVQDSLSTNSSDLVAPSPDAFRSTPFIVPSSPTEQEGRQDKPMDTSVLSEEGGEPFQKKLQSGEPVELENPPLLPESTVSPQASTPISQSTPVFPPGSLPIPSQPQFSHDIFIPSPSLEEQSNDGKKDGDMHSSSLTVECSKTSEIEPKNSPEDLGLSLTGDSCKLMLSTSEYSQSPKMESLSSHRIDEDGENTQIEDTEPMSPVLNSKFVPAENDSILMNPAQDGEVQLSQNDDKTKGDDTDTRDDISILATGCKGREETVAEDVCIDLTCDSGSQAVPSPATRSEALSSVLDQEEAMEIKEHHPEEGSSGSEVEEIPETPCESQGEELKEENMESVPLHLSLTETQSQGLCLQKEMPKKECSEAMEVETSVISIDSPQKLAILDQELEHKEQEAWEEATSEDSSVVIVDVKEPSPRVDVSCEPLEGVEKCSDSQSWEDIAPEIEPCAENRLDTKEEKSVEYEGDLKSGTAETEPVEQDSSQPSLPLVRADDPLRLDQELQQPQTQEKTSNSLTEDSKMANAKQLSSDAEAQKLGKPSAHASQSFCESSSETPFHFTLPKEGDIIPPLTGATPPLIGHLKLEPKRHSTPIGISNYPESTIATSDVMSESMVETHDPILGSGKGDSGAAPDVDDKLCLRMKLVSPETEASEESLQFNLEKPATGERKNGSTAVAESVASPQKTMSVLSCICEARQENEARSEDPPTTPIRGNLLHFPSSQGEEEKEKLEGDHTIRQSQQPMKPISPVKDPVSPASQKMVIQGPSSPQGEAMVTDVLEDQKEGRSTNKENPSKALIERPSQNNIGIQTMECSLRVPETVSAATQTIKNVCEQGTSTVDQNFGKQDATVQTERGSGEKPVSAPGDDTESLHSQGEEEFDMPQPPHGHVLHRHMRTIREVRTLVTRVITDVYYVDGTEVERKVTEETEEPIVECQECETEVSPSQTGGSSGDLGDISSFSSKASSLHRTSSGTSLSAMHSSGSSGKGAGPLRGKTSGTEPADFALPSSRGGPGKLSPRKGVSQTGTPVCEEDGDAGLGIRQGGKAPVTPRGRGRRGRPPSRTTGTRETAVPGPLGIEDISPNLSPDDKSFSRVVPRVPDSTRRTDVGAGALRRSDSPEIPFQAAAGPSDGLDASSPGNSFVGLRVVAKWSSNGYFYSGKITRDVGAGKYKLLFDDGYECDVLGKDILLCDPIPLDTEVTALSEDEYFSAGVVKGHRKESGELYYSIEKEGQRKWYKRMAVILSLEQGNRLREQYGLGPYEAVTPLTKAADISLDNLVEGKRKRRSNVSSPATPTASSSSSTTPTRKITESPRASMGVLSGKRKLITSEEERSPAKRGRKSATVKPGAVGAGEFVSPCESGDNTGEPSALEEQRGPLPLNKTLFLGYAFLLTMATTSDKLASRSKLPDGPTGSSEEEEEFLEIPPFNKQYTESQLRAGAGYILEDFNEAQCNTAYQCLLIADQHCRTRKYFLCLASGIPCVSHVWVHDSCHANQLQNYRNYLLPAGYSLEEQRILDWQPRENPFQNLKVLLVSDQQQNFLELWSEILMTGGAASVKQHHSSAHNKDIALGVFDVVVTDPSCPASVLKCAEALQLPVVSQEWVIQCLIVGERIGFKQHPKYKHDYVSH
UniProt P03126: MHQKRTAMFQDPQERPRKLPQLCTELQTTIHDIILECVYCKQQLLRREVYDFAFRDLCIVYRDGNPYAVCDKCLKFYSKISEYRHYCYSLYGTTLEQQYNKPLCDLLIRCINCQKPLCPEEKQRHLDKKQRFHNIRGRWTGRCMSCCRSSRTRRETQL
UniProt P03129: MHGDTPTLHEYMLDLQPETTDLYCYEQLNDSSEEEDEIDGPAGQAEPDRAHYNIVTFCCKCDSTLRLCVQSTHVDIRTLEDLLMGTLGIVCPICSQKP

Key:
[1] = target: p53-binding protein 1 (human (endogenous in CaSki and NHEKs)) (UniProt Q12888); assay: proximity ligation; in situ PLA (Duolink, mouse/rabbit probes) on fixed, paraffin-embedded CaSki cells; primary antibodies 53BP1/E6 and 53BP1/E7; red spots; CaSki used as positive control
[2] = target: p53-binding protein 1 (human (endogenous in CaSki and NHEKs)) (UniProt Q12888); assay: proximity ligation; in situ PLA (Duolink, mouse/rabbit probes) on fixed, paraffin-embedded E6E7HPV16 NHEKs (2D); primary antibodies 53BP1/E6 and 53BP1/E7; red spots
[3] = target: p53-binding protein 1 (human (endogenous in CaSki and NHEKs)) (UniProt Q12888); assay: proximity ligation; in situ PLA (Duolink, mouse/rabbit probes) on sections of the HPV16 positive 3D reconstructed epithelium after EDTA unmasking; primary antibodies 53BP1/E6 and 53BP1/E7 overnight at 4 °C; red spots

Row | Substance | binding [1] | binding [2] | binding [3]
1 | Human papillomavirus type 16 E6 oncoprotein (in CaSki cells) (from UniProt P03126 1-158) | binds | – | –
2 | Human papillomavirus type 16 E6 oncoprotein (in E6E7 HPV16 transduced keratinocytes) (from UniProt P03126 1-158) | – | binds | binds
3 | Human papillomavirus type 16 E7 oncoprotein (in CaSki cells) (from UniProt P03129 1-98) | binds | – | –
4 | Human papillomavirus type 16 E7 oncoprotein (in E6E7 HPV16 transduced keratinocytes) (from UniProt P03129 1-98) | – | binds | binds
